PubChem BioAssay AID1159584 | Peter MacCallum Cancer Centre | 2016
This is an unselected part of about 18,000 reagents. Further read-outs or replicates are left out here. No sequences are given here. The record does not give: the amount of reagent, the time to read-out.

Test: 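Genes that CDH1-null MCF10A cells selectively depend on to survive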 (primary screen)
Cell system: human MCF10A breast epithelial cells, parental and CDH1-null
Knock-down reagent: siRNA against human genes
Measured: 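Cell viability by CellTiter-Glo ATP luminescence, each line scaled to the mean of mock wells across plates, then CDH1-null over parental ratio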
Scale: CDH1-null / parental viability ratio: higher = CDH1-null cells survive relatively better than parental; CDH1-null viability vs mock: higher = more viable CDH1-null cells
Units: CDH1-null viability vs mock in fraction of mock

The first 2 entries, ahead of the listing:
{"Gene":"THOC1","PubChem SID":"SID152149496","CDH1-null / parental viability ratio":1.35,"CDH1-null viability vs mock":0.97}
{"Gene":"ADAT2","PubChem SID":"SID152147536","CDH1-null / parental viability ratio":0.93,"CDH1-null viability vs mock":0.82}

Results, from the start:
{"Gene":"THOC1","PubChem SID":"SID152149496","CDH1-null / parental viability ratio":1.35,"CDH1-null viability vs mock":0.97}
{"Gene":"ADAT2","PubChem SID":"SID152147536","CDH1-null / parental viability ratio":0.93,"CDH1-null viability vs mock":0.82}
{"Gene":"GABRG3","PubChem SID":"SID152152605","CDH1-null / parental viability ratio":1.09,"CDH1-null viability vs mock":0.94}
{"Gene":"SLC6A13","PubChem SID":"SID134312646","CDH1-null / parental viability ratio":1.14,"CDH1-null viability vs mock":0.82}
{"Gene":"ZFP42","PubChem SID":"SID152155567","CDH1-null / parental viability ratio":0.89,"CDH1-null viability vs mock":0.86}
{"Gene":"RBM12","PubChem SID":"SID134314736","CDH1-null / parental viability ratio":0.86,"CDH1-null viability vs mock":0.55}
{"Gene":"PHACTR4","PubChem SID":"SID152151175","CDH1-null / parental viability ratio":1.16,"CDH1-null viability vs mock":0.8}
{"Gene":"MRPL44","PubChem SID":"SID134317108","CDH1-null / parental viability ratio":1.08,"CDH1-null viability vs mock":0.97}
{"Gene":"HACE1","PubChem SID":"SID152151110","CDH1-null / parental viability ratio":1.31,"CDH1-null viability vs mock":0.98}
{"Gene":"GNAI1","PubChem SID":"SID152153996","CDH1-null / parental viability ratio":0.92,"CDH1-null viability vs mock":0.76}
{"Gene":"SLC5A6","PubChem SID":"SID135621416","CDH1-null / parental viability ratio":1.05,"CDH1-null viability vs mock":1.09}
{"Gene":"OR1Q1","PubChem SID":"SID152151871","CDH1-null / parental viability ratio":0.98,"CDH1-null viability vs mock":0.95}
{"Gene":"TREM1","PubChem SID":"SID134321873","CDH1-null / parental viability ratio":0.87,"CDH1-null viability vs mock":0.52}
{"Gene":"ADGRG1","PubChem SID":"SID134310516","CDH1-null / parental viability ratio":1.4,"CDH1-null viability vs mock":0.88}
